# From PubChem BioAssay (NCATS)
# Several values for one entry are separate records, joined by “and”; a condition that tells them apart may be missing. Identical values can stand only once. The list shows a part of the results.
# Key:
# [1] = qHTS drug screen for cell cycle checkpoint inhibitors in PARPi-resistant BRCA-mutant ovarian cancer cell lines. (AID 1963452); conditions: PEO1/OlaR viability, CellTiter-Glo luminescence, 96 h, stronger effect = lower value
# Method in brief: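 PEO1, PEO4 and PEO1/OlaR ovarian cancer cells, 600 per well, exposed 96 h at 37C to a dilution series. Viability read by CellTiter-Glo luminescence, normalized to DMSO and empty wells; activity summarized as Z-AUC.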
# [2] = qHTS assay for small molecule agonists of retinoid X receptor alpha signaling (AID 588544); conditions: HEK293T RXRa-UAS-bla, beta-lactamase reporter, 18 h; 530 nm emission
# [3] = qHTS assay for small molecule antagonists of peroxisome proliferator-activated receptor delta signaling (AID 588535); conditions: HEK293T PPARd-UAS-bla, beta-lactamase FRET ratio, 18 h; 460 nm channel;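 also: cells co-treated with a PPAR-delta agonist as stimulator during compound exposure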
# [4] = qHTS assay for small molecule antagonists of retinoid X receptor alpha signaling (AID 588546); conditions: HEK293T RXRa-UAS-bla, beta-lactamase ratio, antagonist mode; measured here: W530 green channel, cytotoxicity proxy;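 also: cells stimulated with 9-cis-retinoic acid as agonist; % is scaled to controls: 0 for no effect and ±100 for the full control effect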
# Method in brief: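 Beta-lactamase reporter inhibition, read as CCF4 fluorescence ratio (ex 405, em 460/530 nm) after 2 h at RT. HEK293T UAS-bla cells, 2500/well, were stimulated with 9-cis-RA at 500 or 100 nM final alongside test compound for 18 h at 37 C.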
compound,measurement,setting,value
CN(CCCl)CCCl,Z-AUC,[1]; measured here: PEO1 parental Z-AUC,0.218
same,Z-AUC,[1]; measured here: PEO4 Z-AUC,0.181
NC(=O)Nc1ccc([As](=O)(O)O)cc1,max response,[2],-12.6%
Cc1c([N+](=O)[O-])cccc1[N+](=O)[O-],max response,[3],15.9%
O=[N+]([O-])C(Cl)(Cl)Cl,max response,[3],20.6% and 63%
same,max response,[2],-5.5% and -18%
same,max response,[4],-12.2% and -1.32%
